Measurements reported in article PMC4981497.
These are yes or no findings as the source states them, for the method shown. Binding seen in cells or lysates may run through a third protein. These calls come from enrichment with a bait or labelling near it, and not all partners need be listed.

Sequences of proteins named here, by UniProt entry; tags and fusion partners are left off. A change or cut given only in a name is not applied to a line headed by its entry. Residues count along the entry.
UniProt P05205: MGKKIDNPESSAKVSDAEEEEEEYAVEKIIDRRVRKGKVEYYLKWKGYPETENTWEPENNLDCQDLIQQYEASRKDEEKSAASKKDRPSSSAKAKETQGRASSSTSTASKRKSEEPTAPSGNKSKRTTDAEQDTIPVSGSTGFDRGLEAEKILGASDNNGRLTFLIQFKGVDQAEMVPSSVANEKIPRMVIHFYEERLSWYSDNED
UniProt Q27268: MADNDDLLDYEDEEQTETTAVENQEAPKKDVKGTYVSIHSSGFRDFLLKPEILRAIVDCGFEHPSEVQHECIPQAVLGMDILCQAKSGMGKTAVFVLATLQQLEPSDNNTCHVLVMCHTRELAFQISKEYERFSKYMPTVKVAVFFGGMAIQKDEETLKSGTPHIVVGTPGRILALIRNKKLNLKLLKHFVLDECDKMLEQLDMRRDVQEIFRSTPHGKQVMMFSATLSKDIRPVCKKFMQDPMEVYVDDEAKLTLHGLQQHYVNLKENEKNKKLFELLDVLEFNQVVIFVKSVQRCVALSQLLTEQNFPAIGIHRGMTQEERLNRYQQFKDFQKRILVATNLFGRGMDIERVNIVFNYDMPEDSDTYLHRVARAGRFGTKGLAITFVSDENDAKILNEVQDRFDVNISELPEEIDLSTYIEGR
UniProt P08985: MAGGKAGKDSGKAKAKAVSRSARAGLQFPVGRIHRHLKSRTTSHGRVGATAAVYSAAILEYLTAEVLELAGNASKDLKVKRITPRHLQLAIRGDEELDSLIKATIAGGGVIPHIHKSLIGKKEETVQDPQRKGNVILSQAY
UniProt P29844, residues 19-656: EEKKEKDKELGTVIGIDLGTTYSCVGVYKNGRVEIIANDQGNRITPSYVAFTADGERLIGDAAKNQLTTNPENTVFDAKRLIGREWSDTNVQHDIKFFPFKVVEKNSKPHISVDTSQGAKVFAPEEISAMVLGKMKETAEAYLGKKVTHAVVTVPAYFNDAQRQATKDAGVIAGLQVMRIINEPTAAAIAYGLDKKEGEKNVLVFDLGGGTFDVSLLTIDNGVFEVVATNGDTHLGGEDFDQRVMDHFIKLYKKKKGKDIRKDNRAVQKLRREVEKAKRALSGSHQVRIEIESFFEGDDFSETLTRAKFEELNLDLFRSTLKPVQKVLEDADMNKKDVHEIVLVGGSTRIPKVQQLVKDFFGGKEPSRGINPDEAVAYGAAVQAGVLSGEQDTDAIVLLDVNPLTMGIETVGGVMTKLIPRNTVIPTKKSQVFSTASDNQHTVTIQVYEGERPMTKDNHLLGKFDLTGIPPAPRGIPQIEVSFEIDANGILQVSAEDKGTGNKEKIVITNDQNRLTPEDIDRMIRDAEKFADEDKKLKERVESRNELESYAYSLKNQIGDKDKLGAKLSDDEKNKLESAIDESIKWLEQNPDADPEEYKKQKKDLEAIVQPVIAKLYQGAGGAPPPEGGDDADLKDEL
UniProt P11147: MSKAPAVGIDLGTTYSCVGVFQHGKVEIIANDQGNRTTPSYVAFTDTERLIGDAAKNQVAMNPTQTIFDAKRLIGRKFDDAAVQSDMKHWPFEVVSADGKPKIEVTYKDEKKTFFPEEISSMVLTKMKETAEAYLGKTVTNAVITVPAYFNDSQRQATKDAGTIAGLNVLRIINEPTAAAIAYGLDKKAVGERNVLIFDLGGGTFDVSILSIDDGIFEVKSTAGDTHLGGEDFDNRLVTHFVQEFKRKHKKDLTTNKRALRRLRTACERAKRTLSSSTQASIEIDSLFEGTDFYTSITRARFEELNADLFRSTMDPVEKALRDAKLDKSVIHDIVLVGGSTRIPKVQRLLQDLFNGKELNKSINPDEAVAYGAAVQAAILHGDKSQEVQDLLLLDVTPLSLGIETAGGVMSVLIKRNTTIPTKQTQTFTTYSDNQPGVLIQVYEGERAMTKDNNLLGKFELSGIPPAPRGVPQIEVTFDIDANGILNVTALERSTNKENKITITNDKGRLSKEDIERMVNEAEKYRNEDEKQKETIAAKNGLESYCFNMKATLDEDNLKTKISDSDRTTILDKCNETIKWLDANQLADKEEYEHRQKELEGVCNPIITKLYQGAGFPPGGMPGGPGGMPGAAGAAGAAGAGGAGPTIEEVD
UniProt P29845: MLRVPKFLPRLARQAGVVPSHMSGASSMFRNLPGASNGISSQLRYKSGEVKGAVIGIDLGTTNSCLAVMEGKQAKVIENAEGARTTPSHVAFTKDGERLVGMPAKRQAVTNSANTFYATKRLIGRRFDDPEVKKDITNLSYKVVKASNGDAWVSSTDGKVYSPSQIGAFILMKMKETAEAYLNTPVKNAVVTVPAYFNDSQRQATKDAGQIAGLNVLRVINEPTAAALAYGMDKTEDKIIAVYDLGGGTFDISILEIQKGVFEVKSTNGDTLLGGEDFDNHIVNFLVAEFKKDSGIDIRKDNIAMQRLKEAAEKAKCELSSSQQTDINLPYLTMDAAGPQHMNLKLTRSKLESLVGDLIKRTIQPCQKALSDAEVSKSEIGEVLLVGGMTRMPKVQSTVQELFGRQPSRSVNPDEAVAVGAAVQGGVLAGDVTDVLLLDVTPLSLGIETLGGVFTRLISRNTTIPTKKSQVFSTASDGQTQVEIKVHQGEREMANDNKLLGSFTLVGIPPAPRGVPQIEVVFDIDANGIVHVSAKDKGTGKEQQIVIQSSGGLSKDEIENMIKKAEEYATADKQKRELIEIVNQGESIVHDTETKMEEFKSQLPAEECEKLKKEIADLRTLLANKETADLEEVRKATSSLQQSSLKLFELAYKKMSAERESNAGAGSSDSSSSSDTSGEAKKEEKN
UniProt O02649, residues 58-573: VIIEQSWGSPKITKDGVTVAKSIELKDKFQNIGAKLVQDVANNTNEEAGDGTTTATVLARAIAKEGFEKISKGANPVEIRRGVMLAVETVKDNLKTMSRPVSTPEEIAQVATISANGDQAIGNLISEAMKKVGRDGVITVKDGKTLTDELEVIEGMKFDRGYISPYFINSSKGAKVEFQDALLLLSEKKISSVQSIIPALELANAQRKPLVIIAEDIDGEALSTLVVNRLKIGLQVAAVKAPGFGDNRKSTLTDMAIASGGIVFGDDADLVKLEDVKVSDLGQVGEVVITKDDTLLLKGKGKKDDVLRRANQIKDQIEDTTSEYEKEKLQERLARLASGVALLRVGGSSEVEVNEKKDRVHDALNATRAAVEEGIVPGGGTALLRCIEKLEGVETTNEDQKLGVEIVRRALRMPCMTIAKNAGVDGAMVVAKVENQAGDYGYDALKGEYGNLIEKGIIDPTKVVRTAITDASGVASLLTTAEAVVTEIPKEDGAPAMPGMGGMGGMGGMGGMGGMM
UniProt P02828: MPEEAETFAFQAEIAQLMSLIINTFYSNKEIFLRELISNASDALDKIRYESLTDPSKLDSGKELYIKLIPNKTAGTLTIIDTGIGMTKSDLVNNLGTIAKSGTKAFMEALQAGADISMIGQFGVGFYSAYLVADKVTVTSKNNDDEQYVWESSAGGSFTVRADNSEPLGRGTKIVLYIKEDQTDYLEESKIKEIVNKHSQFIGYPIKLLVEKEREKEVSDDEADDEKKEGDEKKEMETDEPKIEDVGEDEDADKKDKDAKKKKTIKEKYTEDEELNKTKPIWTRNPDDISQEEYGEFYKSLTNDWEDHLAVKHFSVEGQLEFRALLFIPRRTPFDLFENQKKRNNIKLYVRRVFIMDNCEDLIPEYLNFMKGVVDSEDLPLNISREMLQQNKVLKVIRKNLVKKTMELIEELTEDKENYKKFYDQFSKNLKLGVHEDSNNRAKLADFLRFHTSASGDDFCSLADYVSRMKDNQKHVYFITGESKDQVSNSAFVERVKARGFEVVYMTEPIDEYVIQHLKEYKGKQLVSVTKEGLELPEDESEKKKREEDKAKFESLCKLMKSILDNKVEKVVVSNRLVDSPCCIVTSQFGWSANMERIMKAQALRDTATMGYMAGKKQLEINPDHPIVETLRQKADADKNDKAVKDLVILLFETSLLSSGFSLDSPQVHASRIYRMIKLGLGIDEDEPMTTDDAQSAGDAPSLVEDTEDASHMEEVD
UniProt P12982: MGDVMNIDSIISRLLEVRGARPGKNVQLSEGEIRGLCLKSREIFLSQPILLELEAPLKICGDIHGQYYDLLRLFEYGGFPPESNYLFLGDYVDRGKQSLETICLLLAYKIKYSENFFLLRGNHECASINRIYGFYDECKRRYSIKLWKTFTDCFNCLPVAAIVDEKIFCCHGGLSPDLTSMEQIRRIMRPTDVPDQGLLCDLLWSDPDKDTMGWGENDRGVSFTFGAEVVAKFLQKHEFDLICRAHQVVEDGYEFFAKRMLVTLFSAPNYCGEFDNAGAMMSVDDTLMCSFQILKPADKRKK
UniProt Q9V3G1: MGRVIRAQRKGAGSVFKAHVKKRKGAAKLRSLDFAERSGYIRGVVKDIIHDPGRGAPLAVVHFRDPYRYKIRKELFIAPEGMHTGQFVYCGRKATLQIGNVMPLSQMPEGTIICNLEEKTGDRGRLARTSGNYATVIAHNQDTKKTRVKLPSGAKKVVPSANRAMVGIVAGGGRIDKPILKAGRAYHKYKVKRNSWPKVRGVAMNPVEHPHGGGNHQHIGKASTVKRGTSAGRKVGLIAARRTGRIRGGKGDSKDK
UniProt P45975: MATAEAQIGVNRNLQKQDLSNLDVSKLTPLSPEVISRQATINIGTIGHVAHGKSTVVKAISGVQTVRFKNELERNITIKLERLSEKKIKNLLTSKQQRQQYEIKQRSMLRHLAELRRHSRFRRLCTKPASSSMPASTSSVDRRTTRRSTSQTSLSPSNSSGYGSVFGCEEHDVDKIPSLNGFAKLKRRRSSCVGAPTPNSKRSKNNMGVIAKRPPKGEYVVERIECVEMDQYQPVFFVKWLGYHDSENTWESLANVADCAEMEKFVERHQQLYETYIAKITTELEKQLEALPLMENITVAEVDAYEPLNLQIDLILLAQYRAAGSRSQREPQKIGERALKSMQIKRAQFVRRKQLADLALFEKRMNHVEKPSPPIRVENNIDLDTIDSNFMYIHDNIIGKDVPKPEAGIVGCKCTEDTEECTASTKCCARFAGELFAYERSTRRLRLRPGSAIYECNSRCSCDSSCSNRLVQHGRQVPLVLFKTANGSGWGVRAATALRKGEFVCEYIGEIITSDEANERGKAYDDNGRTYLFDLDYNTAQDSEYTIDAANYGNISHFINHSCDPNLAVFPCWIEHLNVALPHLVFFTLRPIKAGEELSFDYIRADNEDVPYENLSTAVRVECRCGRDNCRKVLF
UniProt Q24560: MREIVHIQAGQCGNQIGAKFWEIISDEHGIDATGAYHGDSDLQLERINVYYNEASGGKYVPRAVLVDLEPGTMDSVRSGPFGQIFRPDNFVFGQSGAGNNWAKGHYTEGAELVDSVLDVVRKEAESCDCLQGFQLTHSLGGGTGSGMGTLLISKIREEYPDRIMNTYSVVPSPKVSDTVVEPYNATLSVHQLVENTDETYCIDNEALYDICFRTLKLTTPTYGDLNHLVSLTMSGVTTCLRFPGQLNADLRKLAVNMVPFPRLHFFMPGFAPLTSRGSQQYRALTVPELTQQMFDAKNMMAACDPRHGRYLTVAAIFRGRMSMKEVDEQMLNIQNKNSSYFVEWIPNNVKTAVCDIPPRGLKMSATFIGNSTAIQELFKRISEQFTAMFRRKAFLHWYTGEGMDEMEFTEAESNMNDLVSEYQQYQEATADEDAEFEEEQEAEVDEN
UniProt Q02748: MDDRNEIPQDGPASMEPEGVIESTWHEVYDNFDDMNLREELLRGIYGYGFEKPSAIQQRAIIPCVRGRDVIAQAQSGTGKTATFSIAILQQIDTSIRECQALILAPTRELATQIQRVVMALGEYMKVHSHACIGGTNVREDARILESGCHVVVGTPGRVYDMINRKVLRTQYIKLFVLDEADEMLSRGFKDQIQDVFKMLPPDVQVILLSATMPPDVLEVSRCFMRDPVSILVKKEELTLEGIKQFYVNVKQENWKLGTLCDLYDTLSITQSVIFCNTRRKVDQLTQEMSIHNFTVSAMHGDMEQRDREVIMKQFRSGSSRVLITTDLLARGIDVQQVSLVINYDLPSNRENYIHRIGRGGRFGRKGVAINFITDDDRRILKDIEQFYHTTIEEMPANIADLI
UniProt P38979: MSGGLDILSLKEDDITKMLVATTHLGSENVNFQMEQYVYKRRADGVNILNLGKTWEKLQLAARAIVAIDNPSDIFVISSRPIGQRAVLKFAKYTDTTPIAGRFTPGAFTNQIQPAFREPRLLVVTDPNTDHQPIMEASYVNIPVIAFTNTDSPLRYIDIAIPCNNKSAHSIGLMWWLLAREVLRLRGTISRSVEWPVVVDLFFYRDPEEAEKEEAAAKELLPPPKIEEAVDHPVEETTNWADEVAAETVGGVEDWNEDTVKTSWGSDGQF

B1: tsr (protein, UniProt P45594 1-148)
chain: MASGVTVSDVCKTTYEEIKKDKKHRYVIFYIRDEKQIDVETVADRNAEYDQFLEDIQKCGPGECRYGLFDFEYMHQCQGTSESSKKQKLFLMSWCPDTAKVKKKMLYSSSFDALKKSLVGVQKYIQATDLSEASREAVEEKLRATDRQ
B2: FK506-binding protein 1 (protein, UniProt P54397 1-357)
chain: MSMFWGLNMKPERKYSQTIIKSFHISGVALDKGQEAKLYLAAEKQEYIVATVTKAIPQVALDLNFSKGDRIMFYTAGDASVSLLGYLHDIDSEDDEDDDQMTIENLLNSKAIKNSKKSEDDEDENESGEEDEEDTDDDSQIIEEYESFLENGEEEDDDDVDEDNEESGEEDEQDSDDSEAEEEQPKAKVAKLSPGASAKKSGKEQNGVAKKEEAKQQQKKKEKPEAKKEQPKAKEPAKQQPASKDPRTITGGVKIVDQVVGKGEEAKQGKRVSVYYIGRLQSNNKTFDSLLKGKPFKFALGGGEVIKGWDVGVAGMKVGGKRVITCPPHMAYGARGAPPKIGPNSTLVFEVELKAVH
B3: La autoantigen-like (protein, UniProt P40796 1-390)
chain: MAEVAETPSVEAQEEVAQPAEAQVLEAKNGDAKKDPAPAAEEAAGGFTKQERAIIRQVEYYFGDANLNRDKFLREQIGKNEDGWVPLSVLVTFKRLASLSTDLSEIVAALNKSEEGLVEISEDKLSLRRHPERPIPEHNEERRKEIQERTAYAKGFPLDSQISELLDFAANYDKVVNLTMRKHYDKPTKSYKFKGSIFLTFETKDQAKAFLEQEKIVYKERELLRKWQVDYLKEKQEEYAQKNEKRKNKKEAKPEPAFELPKNAIVVFEGAPETSSREEIREAFEKIKDFEVAYIEFAKGETKGSVRLTEADAAEKYIAKVEEGKLKFKDEVSLSLRKATEEEEKEFIDKAIEFMKKRRDFTRNKGKRFNRKRHGGNDHKHGGGKKARGD
B4: Lysine (K)-specific demethylase 4A (protein, UniProt Q9V333 1-495)
chain: MSTRSSFADEEQNKVPRIMTFRPSYEEFQNFSAYIEYIESRGAHLAGLAKIQPPAEWVPRKSGYDIDNINMTIPAPICQVVTGAHGVYQQINIQQRRQMTLRQFMEKANSELHQTPRHFDYDDLERKYWKNITYISPLYAADVKGSLSDEDLDVWNIGRLDTILNLVNTDYNIIIDGVNTAYLYFGMWKSSFAWHTEDMDLYSINYLHFGAPKTWYAIPPAYGRRLEKLANETFSENYQECNAYLRHKMTMISPKVLRQHNIPYNKITQEAGEIMITFPFGYHAGFNHGFNGAESTNFASKRWIEYGKRASICRCRSDMVKISMETFVRRFQPERYDNWLKGQDMGCHPEEPGKICAAAPPTLNEYEKQENLRAAKSEEESPQKRGCSLAGNGCERNAESAEDVDDKASVSSYSSCRQLQPVVKLRKLPTIASVPEPSSAPKRYDFNTEAVVRVKRLWNELPCPDRGANLLTNGVVKNTKRMRFQTKVLTLDDED
B5: RpLP0 (protein, UniProt P19889 1-317)
chain: MVRENKAAWKAQYFIKVVELFDEFPKCFIVGADNVGSKQMQNIRTSLRGLAVVLMGKNTMMRKAIRGHLENNPQLEKLLPHIKGNVGFVFTKGDLAEVRDKLLESKVRAPARPGAIAPLHVIIPAQNTGLGPEKTSFFQALSIPTKISKGTIEIINDVPILKPGDKVGASEATLLNMLNISPFSYGLIVNQVYDSGSIFSPEILDIKPEDLRAKFQQGVANLAAVCLSVGYPTIASAPHSIANGFKNLLAIAATTEVEFKEATTIKEYIKDPSKFAAAASASAAPAAGGATEKKEEAKKPESESEEEDDDMGFGLFD
B6: female lethal d (protein, UniProt Q9Y091 1-536)
chain: MSVAAMTMDDQRPCMNSYDKMPPTKYEQNLNILNSSQNSGATGGPASPTPSGLEDHHHHHHPHPHHHHHQEQQQQQQQQQHLQQQQQQQQQQHAAAVAEAVAAAEQRQRLLEDEIENLKLEQVRMAQQCADAQRREKILMRRLANKEQEFQDYVSQIAEYKAQQAPTALALRTALLDPAVNLLFERLKKELKATKAKLEETQNELSAWKFTPDSNTGKRLMAKCRLLYQENEELGKMTSNGRLAKLETELAMQKSFSEEVKKSQSELDDFLQELDEDVEGMQSTILFLQQELKTTRDRIQTLEKENAQLKQAIKDEVVAPAAATNGGTNTTINKLETIHEDACMANNPTNPDCYNGNTNNEQIAAVPQIPLSDDGSNMNGNAARLARKRNYQEEEALPTVVVVPTPTPVGNNVQEAPPIREVTAPRTLPPKKSKLRGITTRRNSQLEEDHQPVTTPVAVPMIVDNAVAGMASEEAAAAAAAVNNSNTGIIPETGVQVGVPVEGGDPGAPAAPGRILTRRRSVRMQQNGSGAVDYST

Molecular target: Heterochromatin Protein 1a tagged with 3X-FLAG and StrepII (3X-FLAG-Myc-StrepII-PP-HP1a) (D. melanogaster) (UniProt P05205)
Assay: affinity purification with mass spectrometry; six purifications of FS-HP1a from S2 cell extracts (single-step on anti-3XFLAG M2 beads, or tandem on anti-3XFLAG M2 then Strep-Tactin beads); benzonase-treated extracts, HP1a extracted with 300 mM NaOAc, 4°C; cells mock-exposed or 10 or 60 min after 10 Gy of X-rays; LC-MS/MS; S2 cells lacking FS-HP1a as negative control

Molecule	binding
CG7172 (from UniProt Q9VP13)	binds
CG8108 (from UniProt Q9VT61)	binds
CG8258 (from UniProt A1Z7K1)	binds
EF2 (from UniProt P13060 1-844)	binds
Hel25E (from UniProt Q27268 1-424)	binds
His2Av (from UniProt P08985 1-141)	binds
Hsc70-3 (from UniProt P29844 19-656)	binds
Hsc70-4 (from UniProt P11147 1-651)	binds
Hsc70-5 (from UniProt P29845 1-686)	binds
Hsp60 (from UniProt O02649 58-573)	binds
Hsp83 (from UniProt P02828 1-717)	binds
Oddjob (CG7357) (from UniProt Q9VEF0)	binds
Pp1-87B (from UniProt P12982 1-302)	binds
RpL8 (from UniProt Q9V3G1 1-256)	binds
Suppressor of variegation 3-9 (from UniProt P45975 1-635)	binds
betaTub56D (from UniProt Q24560 1-447)	binds
eIF-4a (from UniProt Q02748 1-403)	binds
sta (from UniProt P38979 1-270)	binds
B1	binds
B2	binds
B3	binds
B4	binds
B5	binds
B6	binds
